The other results are listed elsewhere or left out. Residues, ends and D or L forms follow the SMILES beside them. *: point of attachment. Cbz = O=C(OCc1ccccc1)*
What was measured:
Assay in all cases: log2 fold change, soluble protein after heating vs DMSO (PISA); higher = thermal stabilisation; K562 cells, 10 uM, 30 min; active = over 0.2 and 3.5 SD of the protein, either way, in both replicates (recomputed)
[1] = compound: C#Cc1cccc(Nc2ncnc3cc(OCCOC)c(OCCOC)cc23)c1 [erlotinib]
How it was run: (§1)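 Soluble protein was quantified by TMTpro 16plex LC-MS/MS after channel sums were equalised. It was obtained as the supernatant after 21,000xg for 90 min from pooled aliquots of K562 cells (2×10^6 cells/mL, 10 μM compound, 30 min) heated for 3 min across 48°C-58°C and extracted in PBS with 0.5% NP-40 at 4°C. Thermal stability values are relative to control samples and come from duplicates. They are given as log2 fold changes.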

By UniProt entry, the sequences of proteins in these tests, tags left out. Where a name states a change or a piece, a line headed by the entry shows the natural chain unless it says otherwise.
UniProt Q9UMX1: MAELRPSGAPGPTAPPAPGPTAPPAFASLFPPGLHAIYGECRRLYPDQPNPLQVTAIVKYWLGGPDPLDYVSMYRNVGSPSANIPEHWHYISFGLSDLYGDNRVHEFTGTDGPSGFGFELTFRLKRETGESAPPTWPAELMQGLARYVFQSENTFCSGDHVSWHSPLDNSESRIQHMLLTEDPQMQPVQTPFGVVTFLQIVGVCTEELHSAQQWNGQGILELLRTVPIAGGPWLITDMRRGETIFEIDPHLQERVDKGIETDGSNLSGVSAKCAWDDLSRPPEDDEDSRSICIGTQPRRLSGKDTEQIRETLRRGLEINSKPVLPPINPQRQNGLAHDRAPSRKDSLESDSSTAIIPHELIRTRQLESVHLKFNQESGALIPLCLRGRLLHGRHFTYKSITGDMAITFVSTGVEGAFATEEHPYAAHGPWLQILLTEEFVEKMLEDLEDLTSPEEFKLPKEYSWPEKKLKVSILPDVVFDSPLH
UniProt Q9UK61: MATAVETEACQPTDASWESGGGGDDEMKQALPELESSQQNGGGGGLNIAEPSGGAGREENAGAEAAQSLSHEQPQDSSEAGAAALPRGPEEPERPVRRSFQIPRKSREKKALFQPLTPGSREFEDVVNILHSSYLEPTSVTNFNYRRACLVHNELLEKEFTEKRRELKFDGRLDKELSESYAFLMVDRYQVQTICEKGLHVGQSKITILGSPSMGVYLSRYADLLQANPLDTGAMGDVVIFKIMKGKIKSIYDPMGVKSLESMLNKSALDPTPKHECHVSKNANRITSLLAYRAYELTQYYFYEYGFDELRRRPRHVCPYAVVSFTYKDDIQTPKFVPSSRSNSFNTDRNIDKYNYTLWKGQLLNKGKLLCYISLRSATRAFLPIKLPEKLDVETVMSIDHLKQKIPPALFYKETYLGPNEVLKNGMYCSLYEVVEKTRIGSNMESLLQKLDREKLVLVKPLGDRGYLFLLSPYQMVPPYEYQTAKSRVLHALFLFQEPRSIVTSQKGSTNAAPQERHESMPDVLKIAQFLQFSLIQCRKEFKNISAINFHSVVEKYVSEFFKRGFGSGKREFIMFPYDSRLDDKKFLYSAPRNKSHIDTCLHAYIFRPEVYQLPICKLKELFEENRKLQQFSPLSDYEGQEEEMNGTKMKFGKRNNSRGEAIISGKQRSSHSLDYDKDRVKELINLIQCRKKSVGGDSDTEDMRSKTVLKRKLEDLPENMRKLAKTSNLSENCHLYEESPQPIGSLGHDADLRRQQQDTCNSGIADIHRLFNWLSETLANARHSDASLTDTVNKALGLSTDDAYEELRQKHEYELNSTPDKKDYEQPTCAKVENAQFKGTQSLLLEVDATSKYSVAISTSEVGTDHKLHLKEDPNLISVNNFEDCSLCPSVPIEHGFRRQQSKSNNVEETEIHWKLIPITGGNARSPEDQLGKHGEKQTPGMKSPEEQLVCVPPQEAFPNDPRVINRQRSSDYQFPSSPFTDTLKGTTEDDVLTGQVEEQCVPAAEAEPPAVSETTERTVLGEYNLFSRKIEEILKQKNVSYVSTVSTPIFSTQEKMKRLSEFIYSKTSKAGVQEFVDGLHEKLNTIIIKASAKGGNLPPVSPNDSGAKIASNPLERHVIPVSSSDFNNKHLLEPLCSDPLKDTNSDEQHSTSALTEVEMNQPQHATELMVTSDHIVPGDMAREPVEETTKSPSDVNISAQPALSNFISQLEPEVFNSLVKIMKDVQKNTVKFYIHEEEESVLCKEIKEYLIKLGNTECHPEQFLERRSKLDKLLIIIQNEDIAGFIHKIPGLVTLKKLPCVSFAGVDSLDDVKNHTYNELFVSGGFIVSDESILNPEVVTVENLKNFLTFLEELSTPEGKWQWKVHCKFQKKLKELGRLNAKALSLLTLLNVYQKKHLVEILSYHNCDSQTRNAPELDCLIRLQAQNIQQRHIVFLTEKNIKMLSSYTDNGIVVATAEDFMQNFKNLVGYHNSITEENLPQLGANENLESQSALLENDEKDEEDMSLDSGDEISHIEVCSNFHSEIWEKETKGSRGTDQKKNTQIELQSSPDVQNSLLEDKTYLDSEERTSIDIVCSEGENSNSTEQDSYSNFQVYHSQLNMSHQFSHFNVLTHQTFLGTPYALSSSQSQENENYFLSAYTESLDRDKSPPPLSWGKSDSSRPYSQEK
UniProt Q9H6P5: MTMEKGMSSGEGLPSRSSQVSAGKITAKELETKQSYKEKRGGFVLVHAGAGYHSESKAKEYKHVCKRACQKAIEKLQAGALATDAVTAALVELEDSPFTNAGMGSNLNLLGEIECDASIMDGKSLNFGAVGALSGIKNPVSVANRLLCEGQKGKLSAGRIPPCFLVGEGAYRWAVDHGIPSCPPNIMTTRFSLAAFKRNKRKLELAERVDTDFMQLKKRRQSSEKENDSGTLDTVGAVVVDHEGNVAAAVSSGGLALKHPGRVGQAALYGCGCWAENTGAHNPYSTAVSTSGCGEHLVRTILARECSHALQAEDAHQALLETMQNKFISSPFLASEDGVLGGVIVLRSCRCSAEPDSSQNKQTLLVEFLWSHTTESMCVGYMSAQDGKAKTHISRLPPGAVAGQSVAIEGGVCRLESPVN
UniProt Q9UBI4: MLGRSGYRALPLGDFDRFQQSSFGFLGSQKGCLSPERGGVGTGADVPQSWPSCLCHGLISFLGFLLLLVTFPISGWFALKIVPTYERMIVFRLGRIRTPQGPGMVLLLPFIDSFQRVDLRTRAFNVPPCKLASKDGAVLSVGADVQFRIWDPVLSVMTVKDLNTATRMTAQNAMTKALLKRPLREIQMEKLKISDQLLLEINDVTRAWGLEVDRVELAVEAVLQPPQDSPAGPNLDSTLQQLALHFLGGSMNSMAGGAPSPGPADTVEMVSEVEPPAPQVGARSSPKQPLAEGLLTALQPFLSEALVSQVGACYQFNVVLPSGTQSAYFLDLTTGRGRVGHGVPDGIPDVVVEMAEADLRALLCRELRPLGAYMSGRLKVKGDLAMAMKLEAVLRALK
UniProt Q8TDR2: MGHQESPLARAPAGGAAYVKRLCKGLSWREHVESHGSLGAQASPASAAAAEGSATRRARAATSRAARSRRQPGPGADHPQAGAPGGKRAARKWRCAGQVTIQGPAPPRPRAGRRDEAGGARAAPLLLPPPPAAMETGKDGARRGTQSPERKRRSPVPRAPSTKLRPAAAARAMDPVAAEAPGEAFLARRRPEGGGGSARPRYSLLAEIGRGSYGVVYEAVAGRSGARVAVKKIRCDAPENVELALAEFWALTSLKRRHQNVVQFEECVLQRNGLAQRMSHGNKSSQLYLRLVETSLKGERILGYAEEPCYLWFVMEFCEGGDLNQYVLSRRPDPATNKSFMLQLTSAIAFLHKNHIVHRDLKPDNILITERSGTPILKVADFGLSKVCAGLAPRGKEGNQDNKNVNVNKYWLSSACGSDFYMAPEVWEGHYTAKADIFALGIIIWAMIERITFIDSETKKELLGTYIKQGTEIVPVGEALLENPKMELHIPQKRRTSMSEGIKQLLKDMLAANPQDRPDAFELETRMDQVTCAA
UniProt Q8WXE9: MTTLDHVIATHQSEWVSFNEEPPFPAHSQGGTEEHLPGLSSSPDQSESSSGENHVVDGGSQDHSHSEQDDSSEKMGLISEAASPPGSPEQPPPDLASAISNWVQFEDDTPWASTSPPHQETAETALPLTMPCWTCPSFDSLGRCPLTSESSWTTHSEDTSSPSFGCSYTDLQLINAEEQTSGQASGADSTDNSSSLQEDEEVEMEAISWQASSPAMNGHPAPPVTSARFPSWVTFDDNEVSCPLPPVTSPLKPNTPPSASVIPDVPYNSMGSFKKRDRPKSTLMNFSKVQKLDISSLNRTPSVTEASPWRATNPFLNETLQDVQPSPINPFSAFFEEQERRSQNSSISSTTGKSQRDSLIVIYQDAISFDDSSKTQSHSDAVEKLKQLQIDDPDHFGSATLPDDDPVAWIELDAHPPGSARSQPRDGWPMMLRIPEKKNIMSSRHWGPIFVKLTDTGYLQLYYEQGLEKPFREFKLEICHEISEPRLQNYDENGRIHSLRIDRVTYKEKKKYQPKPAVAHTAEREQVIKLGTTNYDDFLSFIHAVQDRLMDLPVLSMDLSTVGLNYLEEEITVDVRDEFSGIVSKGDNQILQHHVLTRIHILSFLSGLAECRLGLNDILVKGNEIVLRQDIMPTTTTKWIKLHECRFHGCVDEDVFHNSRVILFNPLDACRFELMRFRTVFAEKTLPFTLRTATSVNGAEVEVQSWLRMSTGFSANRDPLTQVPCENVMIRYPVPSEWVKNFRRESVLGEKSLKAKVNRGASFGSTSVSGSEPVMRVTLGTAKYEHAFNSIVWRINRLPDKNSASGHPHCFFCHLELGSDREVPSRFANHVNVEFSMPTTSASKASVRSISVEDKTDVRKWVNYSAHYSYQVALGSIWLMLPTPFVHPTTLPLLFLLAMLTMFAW
UniProt Q15544, whole entry, looked up: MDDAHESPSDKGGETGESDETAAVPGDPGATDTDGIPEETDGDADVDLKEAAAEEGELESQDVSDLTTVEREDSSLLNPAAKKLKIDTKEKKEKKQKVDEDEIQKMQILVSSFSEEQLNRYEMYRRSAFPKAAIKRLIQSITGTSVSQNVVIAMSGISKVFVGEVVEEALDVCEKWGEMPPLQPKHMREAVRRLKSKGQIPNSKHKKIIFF
UniProt Q9NRP7: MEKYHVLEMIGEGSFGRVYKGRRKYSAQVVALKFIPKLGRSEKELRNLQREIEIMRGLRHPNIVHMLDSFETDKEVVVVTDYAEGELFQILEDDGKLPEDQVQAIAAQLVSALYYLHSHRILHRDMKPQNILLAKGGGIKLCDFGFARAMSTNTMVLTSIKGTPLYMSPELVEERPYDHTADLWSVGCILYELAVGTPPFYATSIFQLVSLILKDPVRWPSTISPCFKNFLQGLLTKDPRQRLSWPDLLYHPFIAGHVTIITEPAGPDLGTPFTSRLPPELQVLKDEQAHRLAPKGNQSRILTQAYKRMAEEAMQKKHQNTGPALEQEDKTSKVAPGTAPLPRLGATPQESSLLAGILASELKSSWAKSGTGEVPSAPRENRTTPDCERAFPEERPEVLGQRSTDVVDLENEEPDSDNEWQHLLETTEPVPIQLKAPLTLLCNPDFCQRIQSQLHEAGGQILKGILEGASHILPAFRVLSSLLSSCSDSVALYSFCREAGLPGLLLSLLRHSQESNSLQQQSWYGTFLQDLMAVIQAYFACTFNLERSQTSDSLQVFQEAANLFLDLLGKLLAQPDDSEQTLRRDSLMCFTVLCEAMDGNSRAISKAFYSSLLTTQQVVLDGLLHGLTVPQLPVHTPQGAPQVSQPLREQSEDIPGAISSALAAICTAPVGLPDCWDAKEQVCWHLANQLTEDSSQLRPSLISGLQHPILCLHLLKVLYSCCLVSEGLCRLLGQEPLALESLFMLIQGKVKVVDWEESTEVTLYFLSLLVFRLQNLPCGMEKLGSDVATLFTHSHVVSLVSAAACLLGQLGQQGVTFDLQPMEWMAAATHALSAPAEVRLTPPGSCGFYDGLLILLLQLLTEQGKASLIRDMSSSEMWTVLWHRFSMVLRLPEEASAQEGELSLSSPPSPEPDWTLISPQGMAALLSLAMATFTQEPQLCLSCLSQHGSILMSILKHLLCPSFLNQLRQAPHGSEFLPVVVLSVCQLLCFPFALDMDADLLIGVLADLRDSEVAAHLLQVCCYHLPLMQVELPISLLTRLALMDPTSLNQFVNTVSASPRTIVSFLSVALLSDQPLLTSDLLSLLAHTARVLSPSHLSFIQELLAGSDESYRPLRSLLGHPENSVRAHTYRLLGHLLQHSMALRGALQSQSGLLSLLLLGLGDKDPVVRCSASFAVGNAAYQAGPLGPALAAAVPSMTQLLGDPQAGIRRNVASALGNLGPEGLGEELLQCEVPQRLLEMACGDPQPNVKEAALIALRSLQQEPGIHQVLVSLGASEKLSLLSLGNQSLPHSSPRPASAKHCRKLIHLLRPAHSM
UniProt O75529: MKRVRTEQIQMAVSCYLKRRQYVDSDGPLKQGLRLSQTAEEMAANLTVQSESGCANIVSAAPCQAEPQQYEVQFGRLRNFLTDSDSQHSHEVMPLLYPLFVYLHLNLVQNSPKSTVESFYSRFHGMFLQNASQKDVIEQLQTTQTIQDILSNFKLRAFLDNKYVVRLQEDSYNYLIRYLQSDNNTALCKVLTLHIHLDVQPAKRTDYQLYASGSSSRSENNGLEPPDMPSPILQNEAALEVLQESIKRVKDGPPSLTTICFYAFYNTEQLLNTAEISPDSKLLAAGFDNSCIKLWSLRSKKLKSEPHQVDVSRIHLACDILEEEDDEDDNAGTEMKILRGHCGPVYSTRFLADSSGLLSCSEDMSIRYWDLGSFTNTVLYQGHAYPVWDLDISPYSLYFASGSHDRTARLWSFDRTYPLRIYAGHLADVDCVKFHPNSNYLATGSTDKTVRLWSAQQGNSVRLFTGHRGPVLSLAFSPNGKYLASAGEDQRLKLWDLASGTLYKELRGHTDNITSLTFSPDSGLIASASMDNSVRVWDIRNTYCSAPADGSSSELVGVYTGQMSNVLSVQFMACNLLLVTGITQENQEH

[2] = compound: C/C(=N\NC(=O)C1=CC(=CC=C1)S(=O)(=O)N2CCOCC2)/C3=C(C=CC(=C3)Cl)O
How it was run: as §1

[3] = compound: C1=CC(=CC=C1C2=NC3=C(N2)C=C(C=C3)C(=O)N)OC4=CC=C(C=C4)Cl
How it was run: as §1

[4] = compound: C1=CC2=C(C=CC(=C2)/C=C\3/C(=O)NC(=NCC4=CC=CS4)S3)N=C1
How it was run: as §1

[5] = compound: C1=CC2=NC=CN=C2C=C1/C=C/3\C(=O)NC(=O)S3
How it was run: as §1

[6] = compound: C1=CC=C2C(=C1)C3=NNC4=CC=CC(=C43)C2=O
How it was run: as §1

[7] = compound: C=CC(=O)N1CCC[C@@H](n2nc(-c3ccc(Oc4ccccc4)cc3)c3c(N)ncnc32)C1 [ibrutinib]
How it was run: as §1

[8] = compound: CC(=O)c1cnc2ccc(-c3cc(Cl)c(O)c(Cl)c3)nc2c1N[C@H]1CC[C@H](CN(C)C)CC1
How it was run: as §1

[9] = compound: CC(C)C1=C2N=C(C=C(N2N=C1)NCC3=CC=CC=C3)NCCCCCCN
How it was run: as §1

[10] = compound: C1COCCN1CCN2C3=CC=CC=C3N=C2NC(=O)C4=CC(=CC=C4)[N+](=O)[O-] [IRAK-1-4 Inhibitor I]
How it was run: as §1

[11] = compound: CC(C)N(C[C@H]1O[C@@H](n2cnc3c(N)ncnc32)[C@H](O)[C@@H]1O)[C@H]1C[C@@H](CCc2nc3cc(C(C)(C)C)ccc3[nH]2)C1 [pinometostat]
How it was run: as §1

[12] = compound: CC1=C(C(CC(=O)N1)C2=CC=C(C=C2)C(F)(F)F)C(=O)NC3=C(C=C4C(=C3)C=NN4)F
How it was run: as §1

[13] = compound: C1=CC=C(C=C1)C2=NC(=C(N2)C3=CC=NC=C3)C4=CC(=C(C=C4)Cl)O
How it was run: as §1

[14] = compound: CC(C)(C)Cn1c(N)nc2ccc(-c3[nH]c(C(C)(C)C)nc3-c3ccc(F)cc3)nc21 [ralimetinib]
How it was run: as §1

[15] = compound: CC(C)C[C@@H](C=O)NC(=O)[C@H](CC(C)C)NC(=O)[C@H](CC(C)C)NC(=O)OCc1ccccc1
How it was run: as §1

[16] = compound: C1=CC(=C(C=C1Cl)C2=NC3=NC=CN=C3C(=N2)NC4=CC=NC=C4)F
How it was run: as §1

[17] = compound: CC(C)(O)CC(=O)NCCn1ccc2ncnc(Nc3ccc(Oc4cccc(C(F)(F)F)c4)c(Cl)c3)c21
How it was run: as §1

[18] = compound: C1CCN(C1)C(=O)NC2=CC=CC(=C2)NC3=NC=C(C(=N3)NCCC4=CN=CN4)Br
How it was run: as §1

[19] = compound: C1CN(CCC1(CC2=CC=C(C=C2)Cl)N)C3=NC=NC4=C3C=CN4
How it was run: as §1

[20] = compound: CC1=C(C2=C(C=C1)C(=O)C3=CC=CC=C3N2CCCN)C
How it was run: as §1

Measured: log2 fold change

SUFU (UniProt Q9UMX1)
inactive: [1] 0.113 | [2] 0.194 | [3] -0.138 | [4] -0.093 | [5] -0.041 | [6] 0.162 | [7] 0.182 | [8] 0.03 | [9] -0.298

SUSD1 isoform 2 (UniProt Q6UWL2)
inactive: [1] -0.013 | [2] -0.053 | [3] 0 | [4] 0.073 | [5] 0.001 | [6] -0.036 | [10] -0.066 | [7] -0.007 | [8] -0.084 | [9] 0.085 | [11] -0.002 | [12] -0.012

TASOR (UniProt Q9UK61)
inactive: [13] -0.04 | [14] -0.03 | [15] 0.008

TASP1 (UniProt Q9H6P5)
inactive: [1] 0.315 | [16] -0.622 | [3] -0.001 | [17] 0.11 | [9] 0.12 | [12] 0.007

STOML1 (UniProt Q9UBI4)
inactive: [13] 0.175 | [18] 0.052 | [19] -0.105 | [14] -0.004 | [15] 0.124 | [20] -0.021

SUGP2 (UniProt Q8IX01)
inactive: [16] -0.667 | [17] 0.137 | [12] 0.034

TAF6L (UniProt Q9Y6J9)
inactive: [1] 0.042 | [2] 0.08 | [3] -0.132 | [4] 0.009 | [13] -0.051 | [6] 0.088 | [18] -0.069 | [19] -0.197 | [8] 0.054 | [14] -0.092 | [9] 0.023 | [15] 0.122 | [20] -0.03

STXBP5L (UniProt Q9Y2K9)
inactive: [1] -0.027 | [3] 0.007 | [10] 0.09 | [9] -0.196 | [11] -0.083 | [12] -0.05

STK35 (UniProt Q8TDR2)
inactive: [2] -0.166 | [4] 0.231 | [13] 0.073 | [6] 0.083 | [8] -0.085 | [14] -0.038 | [15] 0.083 | [12] -0.142

Quoted from the listing (two entries):
TASP1 (UniProt Q9H6P5)
inactive: [1] 0.315 | [16] -0.622 | [3] -0.001 | [17] 0.11 | [9] 0.12 | [12] 0.007

STOML1 (UniProt Q9UBI4)
inactive: [13] 0.175 | [18] 0.052 | [19] -0.105 | [14] -0.004 | [15] 0.124 | [20] -0.021

The list goes on:

TAGLN3 (UniProt Q9UI15)
inactive: [2] -0.189 | [16] 0.054 | [4] 0.078 | [5] 0.156 | [6] 0.042 | [18] 0.218 | [19] 0.058 | [10] -0.006 | [7] -0.126 | [8] -0.055 | [17] -0.02 | [11] -0.082 | [20] -0.07

STON2 isoform 3 (UniProt Q8WXE9)
inactive: [13] -0.002 | [18] 0.102 | [19] 0.017 | [10] 0.006 | [14] 0.147 | [15] 0.005 | [11] 0.009 | [12] 0.015 | [20] -0.211

SUZ12 (UniProt Q15022)
inactive: [2] -0.025 | [4] -0.069 | [13] -0.093 | [6] 0.032 | [10] 0.001 | [8] -0.021 | [14] -0.12 | [15] 0.124 | [11] 0.065 | [12] 0.005

TAF11 (UniProt Q15544)
inactive: [1] -0.002 | [2] -0.086 | [3] 0.002 | [4] -0.059 | [5] -0.044 | [13] -0.087 | [6] 0.013 | [18] 0.029 | [19] 0.031 | [7] 0.037 | [8] 0.052 | [14] -0.007 | [9] -0.097 | [15] 0.093 | [20] 0.054

STK36 (UniProt Q9NRP7)
inactive: [1] 0.1 | [2] -0.096 | [3] 0.063 | [4] -0.002 | [5] -0.02 | [13] 0.231 | [6] 0 | [7] 0.097 | [8] -0.095 | [14] 0.333 | [9] -0.301 | [15] 0.088 | [12] 0.024

TAF9B (UniProt Q9HBM6)
inactive: [1] 0.008 | [16] -0.087 | [3] -0.097 | [5] 0.153 | [18] 0.041 | [19] 0.131 | [10] 0.081 | [7] -0.102 | [17] -0.003 | [9] 0.005 | [11] -0.016 | [20] 0.057

SULT1E1 (UniProt P49888)
inactive: [1] -0.191 | [3] 0.095 | [5] 0.003 | [7] 0.147 | [9] 0.009 | [12] 0.005

TAF5L (UniProt O75529)
inactive: [5] -0.063 | [7] -0.017

TBC1D10A (UniProt Q9BXI6)
inactive: [16] -0.081 | [5] 0.177 | [13] -0.038 | [18] -0.003 | [19] -0.056 | [10] -0.027 | [7] -0.077 | [14] 0.142 | [17] -0.107 | [15] 0.142 | [11] 0.15 | [20] 0.01

STK40 isoform 4 (UniProt Q8N2I9)
inactive: [2] 0.192 | [4] -0.118 | [6] -0.317 | [8] -0.414

Source: the supplement of paper PMC10849652
